Data as given in PubChem BioAssay AID1259254 (NCATS, 2017)

Purpose: 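Gene knock-downs that lead to re-replication, shown by excess G2 DNA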 (primary screen)
Cells: human HCT116 colorectal cancer cells
Reagents: single siRNA against human genes
Duration: 3 days
Read-out: 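Imaged Hoechst DNA stain sorts each cell into a cycle phase by DNA amount; per plate, G2 fraction set to 0% for non-targeting and 100% for GMNN siRNA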
Direction: G2 robust z-score and G2 cells, % of GMNN control: higher = more G2 cells, more excess DNA replication; raw share of cells in G2: higher = larger share of cells with G2 DNA content
Active means: 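Active siRNAs have a G2 robust z of 5 or more median absolute deviations over the median, which in these data means about 38% or higher of GMNN control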
Shown is one part, drawn at random, of about 59,000 reagents tested. In the full data, about 1,550 (2.6%) are marked active. 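G2 share is only a proxy for re-replication; each gene was hit by three separate siRNAs, and active genes were retested.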 Raw values vary from plate to plate and are shown uncorrected. Reagents against one gene are numbered here. The record does not give: the amount of reagent.

G2 robust z-score | G2 cells, % of GMNN control | raw share of cells in G2 (%) | Call | target gene | reagent
-0.782 | -2.54 | 2.88 | inactive | TNRC6A (GeneID 27327) | 1
-0.251 | 1.2 | 5 | inactive | TNRC6A (GeneID 27327) | 2
-0.825 | -2.84 | 2.36 | inactive | TNRC6A (GeneID 27327) | 3
-0.948 | -3.7 | 2.38 | inactive | IPO11 (GeneID 51194) | 1
-0.6 | -1.25 | 5.38 | inactive | IPO11 (GeneID 51194) | 2
0.981 | 9.87 | 7.89 | inactive | IPO11 (GeneID 51194) | 3
-1.21 | -5.58 | 3.26 | inactive | KCNK3 (GeneID 3777) | 1
0.251 | 4.74 | 6.38 | inactive | KCNK3 (GeneID 3777) | 2
0.0782 | 3.52 | 5.75 | inactive | KCNK3 (GeneID 3777) | 3
0.226 | 4.56 | 6.34 | inactive | ARMC9 (GeneID 80210) | 1
-0.326 | 0.673 | 4.6 | inactive | ARMC9 (GeneID 80210) | 2
-0.63 | -1.46 | 1.98 | inactive | ARMC9 (GeneID 80210) | 3
-0.396 | 0.184 | 3.84 | inactive | BSX (GeneID 390259) | 1
0.0194 | 3.1 | 4.76 | inactive | BSX (GeneID 390259) | 2
4.98 | 38 | 20.9 | inactive | BSX (GeneID 390259) | 3
0.0598 | 3.39 | 5.55 | inactive | LINC01139 (GeneID 339535) | 1
-0.171 | 1.76 | 4.59 | inactive | LINC01139 (GeneID 339535) | 2
1.73 | 15.2 | 9.89 | inactive | LINC01139 (GeneID 339535) | 3
-0.65 | -1.61 | 2.66 | inactive | RWDD1 (GeneID 51389) | 1
-0.179 | 1.71 | 4.21 | inactive | RWDD1 (GeneID 51389) | 2
-0.678 | -1.8 | 3.51 | inactive | RWDD1 (GeneID 51389) | 3
0.173 | 4.18 | 5.42 | inactive | CCDC160 (GeneID 347475) | 1
0.138 | 3.94 | 4.98 | inactive | CCDC160 (GeneID 347475) | 2
2.21 | 18.5 | 11.6 | inactive | CCDC160 (GeneID 347475) | 3
-0.186 | 1.66 | 5.6 | inactive | CHM (GeneID 1121) | 1
2.48 | 20.4 | 11.1 | inactive | CHM (GeneID 1121) | 2
-1.25 | -5.8 | 2.89 | inactive | CHM (GeneID 1121) | 3
0.672 | 7.69 | 7.18 | inactive | SPATA32 (GeneID 124783) | 1
-0.203 | 1.54 | 3.79 | inactive | SPATA32 (GeneID 124783) | 2
-0.41 | 0.0805 | 1.84 | inactive | SPATA32 (GeneID 124783) | 3
-0.972 | -3.87 | 2.54 | inactive | LSM12 (GeneID 124801) | 1
-0.303 | 0.838 | 3.58 | inactive | LSM12 (GeneID 124801) | 2
-0.187 | 1.65 | 2.3 | inactive | LSM12 (GeneID 124801) | 3
-0.574 | -1.07 | 5.96 | inactive | RAB25 (GeneID 57111) | 1
-0.447 | -0.177 | 4.26 | inactive | RAB25 (GeneID 57111) | 2
0.364 | 5.53 | 6.42 | inactive | RAB25 (GeneID 57111) | 3
2.84 | 23 | 12.9 | inactive | RASGRF2 (GeneID 5924) | 1
-0.0199 | 2.83 | 5.76 | inactive | RASGRF2 (GeneID 5924) | 2
1.19 | 11.3 | 7.92 | inactive | RASGRF2 (GeneID 5924) | 3
4.38 | 33.8 | 15.4 | inactive | NUP62 (GeneID 23636) | 1
-0.287 | 0.949 | 4.3 | inactive | NUP62 (GeneID 23636) | 2
1.05 | 10.4 | 10.9 | inactive | NUP62 (GeneID 23636) | 3
-0.884 | -3.25 | 4.11 | inactive | GPR137B (GeneID 7107) | 1
-0.401 | 0.143 | 4.83 | inactive | GPR137B (GeneID 7107) | 2
0.966 | 9.76 | 8.19 | inactive | GPR137B (GeneID 7107) | 3
-0.653 | -1.63 | 4.27 | inactive | PLCB2 (GeneID 5330) | 1
-1.06 | -4.49 | 2.95 | inactive | PLCB2 (GeneID 5330) | 2
2.59 | 21.2 | 9.87 | inactive | PLCB2 (GeneID 5330) | 3
0.879 | 9.15 | 9.86 | inactive | NOTCH2NLA (GeneID 388677) | 1
-0.367 | 0.388 | 5.11 | inactive | NOTCH2NLA (GeneID 388677) | 2
0.189 | 4.3 | 5.85 | inactive | NOTCH2NLA (GeneID 388677) | 3
-0.782 | -2.53 | 4.11 | inactive | EML1 (GeneID 2009) | 1
-0.952 | -3.73 | 2.72 | inactive | EML1 (GeneID 2009) | 2
-0.523 | -0.71 | 3.24 | inactive | EML1 (GeneID 2009) | 3
-0.408 | 0.0999 | 5.38 | inactive | MAD2L1BP (GeneID 9587) | 1
0.32 | 5.22 | 6.12 | inactive | MAD2L1BP (GeneID 9587) | 2
-0.581 | -1.12 | 3 | inactive | MAD2L1BP (GeneID 9587) | 3
-0.363 | 0.41 | 5.22 | inactive | BNIP1 (GeneID 662) | 1
-0.0534 | 2.59 | 4.96 | inactive | BNIP1 (GeneID 662) | 2
-0.687 | -1.87 | 4.08 | inactive | BNIP1 (GeneID 662) | 3
0.324 | 5.25 | 5.54 | inactive | NID1 (GeneID 4811) | 1
-0.542 | -0.848 | 4.45 | inactive | NID1 (GeneID 4811) | 2
-0.292 | 0.916 | 3.44 | inactive | NID1 (GeneID 4811) | 3
-0.0543 | 2.59 | 5.37 | inactive | OSTC (GeneID 58505) | 1
-0.656 | -1.65 | 3.67 | inactive | OSTC (GeneID 58505) | 2
-0.116 | 2.15 | 3.71 | inactive | OSTC (GeneID 58505) | 3
-0.303 | 0.838 | 4.15 | inactive | ZNF346 (GeneID 23567) | 1
-0.197 | 1.58 | 4.68 | inactive | ZNF346 (GeneID 23567) | 2
1.73 | 15.1 | 12.4 | inactive | ZNF346 (GeneID 23567) | 3
0.256 | 4.77 | 6.35 | inactive | PIK3R1 (GeneID 5295) | 1
0.395 | 5.75 | 5.23 | inactive | PIK3R1 (GeneID 5295) | 2
-1.32 | -6.31 | 2.4 | inactive | PIK3R1 (GeneID 5295) | 3
1.29 | 12.1 | 8.04 | inactive | CEP170B (GeneID 283638) | 1
0.747 | 8.22 | 6.22 | inactive | CEP170B (GeneID 283638) | 2
-0.417 | 0.0343 | 3.28 | inactive | CEP170B (GeneID 283638) | 3
4.35 | 33.5 | 16.4 | inactive | TNN (GeneID 63923) | 1
2.25 | 18.8 | 11 | inactive | TNN (GeneID 63923) | 2
-1.25 | -5.83 | 3.23 | inactive | TNN (GeneID 63923) | 3
0.959 | 9.71 | 8.26 | inactive | APOBEC3F (GeneID 200316) | 1
-0.543 | -0.853 | 4.34 | inactive | APOBEC3F (GeneID 200316) | 2
7.01 | 52.3 | 30.9 | active | APOBEC3F (GeneID 200316) | 3
1.47 | 13.3 | 12 | inactive | DDX49 (GeneID 54555) | 1
1.22 | 11.6 | 8.51 | inactive | DDX49 (GeneID 54555) | 2
-0.316 | 0.745 | 4.09 | inactive | DDX49 (GeneID 54555) | 3
0.144 | 3.98 | 5.47 | inactive | PHOX2A (GeneID 401) | 1
1.81 | 15.7 | 10.7 | inactive | PHOX2A (GeneID 401) | 2
-0.42 | 0.0116 | 4.72 | inactive | PHOX2A (GeneID 401) | 3

A run of entries taken from the entries so far, as a working copy:
G2 robust z-score | G2 cells, % of GMNN control | raw share of cells in G2 (%) | Call | target gene | reagent
-0.678 | -1.8 | 3.51 | inactive | RWDD1 (GeneID 51389) | 3
0.173 | 4.18 | 5.42 | inactive | CCDC160 (GeneID 347475) | 1
0.138 | 3.94 | 4.98 | inactive | CCDC160 (GeneID 347475) | 2
2.21 | 18.5 | 11.6 | inactive | CCDC160 (GeneID 347475) | 3
-0.186 | 1.66 | 5.6 | inactive | CHM (GeneID 1121) | 1
2.48 | 20.4 | 11.1 | inactive | CHM (GeneID 1121) | 2
-1.25 | -5.8 | 2.89 | inactive | CHM (GeneID 1121) | 3
0.672 | 7.69 | 7.18 | inactive | SPATA32 (GeneID 124783) | 1
-0.203 | 1.54 | 3.79 | inactive | SPATA32 (GeneID 124783) | 2
-0.41 | 0.0805 | 1.84 | inactive | SPATA32 (GeneID 124783) | 3
